In US7348140B1, “Clinical indications for genotyping polymorphic variants of G-protein coupled receptors” (Acadia Pharmaceuticals, Inc., priority 2001, dated 2008):
Changes are numbered by the printed parent chain.

Tests used:
Format in all cases: cell-based
[1] = molecular target: T1, thromboxane receptor V80E (Glutamic Acid 80) (Homo sapiens, UniProt P21731, V80E); assay: R-SAT functional assay, thromboxane receptor V80E; conditions: shift in functional potency, Glutamic Acid 80 vs Valine 80; Table 26
T1 construct: expressed in transfected cells; host or cells: NIH-3T3
T1 sequence (P21731 1-343 V80E): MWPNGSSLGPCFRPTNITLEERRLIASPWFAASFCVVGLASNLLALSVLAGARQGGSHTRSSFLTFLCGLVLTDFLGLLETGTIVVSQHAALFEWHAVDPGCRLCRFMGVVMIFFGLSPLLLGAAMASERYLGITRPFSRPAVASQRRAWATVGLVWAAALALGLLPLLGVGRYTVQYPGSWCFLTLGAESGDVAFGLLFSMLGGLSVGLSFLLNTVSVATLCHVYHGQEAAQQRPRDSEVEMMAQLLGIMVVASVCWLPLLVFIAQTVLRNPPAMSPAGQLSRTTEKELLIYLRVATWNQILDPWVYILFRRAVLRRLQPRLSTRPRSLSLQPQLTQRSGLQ

[2] = molecular target: T2, thromboxane receptor E94V (Valine 94) (Homo sapiens, UniProt P21731, E94V); assay: R-SAT functional assay, thromboxane receptor E94V; conditions: shift in functional potency, Valine 94 vs Glutamine 94; Table 27
T2 construct: expressed in transfected cells; host or cells: NIH-3T3
T2 sequence (P21731 1-343 E94V): T1 sequence (P21731 1-343 V80E) with E80V, E94V

[3] = molecular target: T3, thromboxane receptor V176E (Glutamic Acid 176) (Homo sapiens, UniProt P21731, V176E); assay: R-SAT functional assay, thromboxane receptor V176E; conditions: shift in functional potency, Glutamic Acid 176 vs Valine 176
T3 construct: expressed in transfected cells; host or cells: NIH-3T3
T3 sequence (P21731 1-343 V176E): T1 sequence (P21731 1-343 V80E) with E80V, V176E

Q: Which results are given for CCCCC[C@H](O)/C=C/[C@H]1O[C@H]2C[C@H](O2)[C@@H]1C/C=C\CCCC(=O)O [Thromboxane A2]?
A: Fold [1]: 11 fold; Fold [2]: 2.3 fold; Fold [3]: 7 fold
